From publication PMC10758069
These are yes or no findings as the source states them, for the method shown. In cells and extracts the contact can be indirect. Some entries that bind do so weakly or less than the wild type. For some assays here: Where a sequence is shown, tags or fusion partners need not be part of it. One block for each molecule: values may come before it.

Chains of the proteins cited; added tags and fusions are not shown.
UniProt Q8CFI0: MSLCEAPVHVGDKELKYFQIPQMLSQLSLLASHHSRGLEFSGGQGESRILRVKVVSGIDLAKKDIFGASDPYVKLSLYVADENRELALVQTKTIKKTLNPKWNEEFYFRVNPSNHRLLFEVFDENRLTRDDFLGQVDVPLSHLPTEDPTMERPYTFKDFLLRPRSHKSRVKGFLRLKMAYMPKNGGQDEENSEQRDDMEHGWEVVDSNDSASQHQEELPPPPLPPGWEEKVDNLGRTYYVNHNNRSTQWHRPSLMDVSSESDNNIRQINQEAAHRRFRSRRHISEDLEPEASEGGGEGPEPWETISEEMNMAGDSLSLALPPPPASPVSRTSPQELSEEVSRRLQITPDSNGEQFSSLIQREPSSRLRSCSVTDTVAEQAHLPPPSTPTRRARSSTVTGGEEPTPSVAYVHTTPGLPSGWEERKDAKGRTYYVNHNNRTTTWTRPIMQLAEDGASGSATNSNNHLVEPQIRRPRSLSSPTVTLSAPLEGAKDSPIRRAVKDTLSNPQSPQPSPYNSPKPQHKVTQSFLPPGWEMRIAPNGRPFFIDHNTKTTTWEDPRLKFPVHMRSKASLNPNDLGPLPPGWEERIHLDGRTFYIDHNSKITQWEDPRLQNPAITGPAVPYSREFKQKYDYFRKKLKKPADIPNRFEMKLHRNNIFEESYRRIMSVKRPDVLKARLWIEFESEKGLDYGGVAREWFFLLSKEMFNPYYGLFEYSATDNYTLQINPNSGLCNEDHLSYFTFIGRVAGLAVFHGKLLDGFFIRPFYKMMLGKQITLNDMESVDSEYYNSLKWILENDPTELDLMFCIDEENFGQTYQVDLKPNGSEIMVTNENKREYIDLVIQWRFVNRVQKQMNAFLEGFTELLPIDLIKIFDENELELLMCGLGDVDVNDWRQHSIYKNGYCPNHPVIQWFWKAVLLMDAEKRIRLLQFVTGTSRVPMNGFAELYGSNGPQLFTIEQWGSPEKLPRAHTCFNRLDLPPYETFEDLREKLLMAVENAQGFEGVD

Key:
[1] = biological target: T1, Pit-1 wild type, expressed from plasmid in HEK293T cells (mouse) (UniProt Q61609); test: co-IP; HEK293T cells transfected with the indicated plasmids (Pit-1, Nedd4-2, with or without SGK3-S486D) for 48 h; lysates precipitated with anti-Pit-1 antibody; blot with anti-Nedd4-2, anti-Pit-1, anti-SGK3 (Figure 7H)
T1 sequence: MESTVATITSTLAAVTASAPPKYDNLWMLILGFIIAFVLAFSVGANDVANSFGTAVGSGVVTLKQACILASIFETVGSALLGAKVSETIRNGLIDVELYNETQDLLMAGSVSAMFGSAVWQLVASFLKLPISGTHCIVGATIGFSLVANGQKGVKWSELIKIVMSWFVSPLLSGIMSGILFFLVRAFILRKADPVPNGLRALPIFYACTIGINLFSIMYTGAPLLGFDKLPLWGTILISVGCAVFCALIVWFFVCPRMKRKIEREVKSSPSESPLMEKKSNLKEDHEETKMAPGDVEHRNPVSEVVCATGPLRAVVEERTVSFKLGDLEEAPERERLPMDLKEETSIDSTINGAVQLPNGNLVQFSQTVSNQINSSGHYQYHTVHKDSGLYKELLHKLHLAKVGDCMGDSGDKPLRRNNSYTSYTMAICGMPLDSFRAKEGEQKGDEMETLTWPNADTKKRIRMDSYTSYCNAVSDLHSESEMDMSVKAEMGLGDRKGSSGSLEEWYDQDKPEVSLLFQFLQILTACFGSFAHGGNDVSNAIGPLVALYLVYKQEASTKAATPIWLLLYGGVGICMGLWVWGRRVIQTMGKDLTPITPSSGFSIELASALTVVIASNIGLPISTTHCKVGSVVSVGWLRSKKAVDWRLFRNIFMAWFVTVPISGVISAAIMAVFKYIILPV

[2] = biological target: T2, WT SGK3, expressed from plasmid in HEK293T cells (UniProt Q9ERE3); test: co-IP; HEK293T cells co-transfected with WT SGK3 and Pit-1 plasmids for 48 h; whole-cell lysates precipitated with anti-Pit-1 antibody (Figure 4D) or anti-SGK3 antibody (Figure 4E), protein A+G agarose, overnight at 4 °C; blot with anti-Pit-1 and anti-SGK3
T2 sequence: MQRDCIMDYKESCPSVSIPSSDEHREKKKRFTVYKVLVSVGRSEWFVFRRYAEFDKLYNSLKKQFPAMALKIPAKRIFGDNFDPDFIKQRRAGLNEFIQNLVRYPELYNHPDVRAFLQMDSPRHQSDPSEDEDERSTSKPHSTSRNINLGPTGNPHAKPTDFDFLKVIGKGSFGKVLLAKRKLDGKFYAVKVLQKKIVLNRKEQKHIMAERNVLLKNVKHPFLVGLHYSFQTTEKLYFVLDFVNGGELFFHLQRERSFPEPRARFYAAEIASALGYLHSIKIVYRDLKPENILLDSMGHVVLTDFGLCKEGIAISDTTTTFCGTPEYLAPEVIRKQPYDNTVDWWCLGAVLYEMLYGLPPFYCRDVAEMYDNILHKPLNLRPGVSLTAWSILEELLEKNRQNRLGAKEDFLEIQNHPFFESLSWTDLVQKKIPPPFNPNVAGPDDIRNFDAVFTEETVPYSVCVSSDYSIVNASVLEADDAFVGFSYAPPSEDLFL

[3] = biological target: T3, type III sodium-dependent phosphate cotransporter-1 (Pit-1), endogenous in mouse VSMCs (mouse (endogenous in mouse VSMCs)) (UniProt Q61609); test: co-IP; mouse VSMCs treated with or without high Pi (3 mM, 48 h); whole-cell lysates (about 1 mg protein) precipitated with anti-Pit-1 antibody and protein A+G agarose overnight at 4 °C; blot with anti-Pit-1 and anti-SGK3
T3 sequence: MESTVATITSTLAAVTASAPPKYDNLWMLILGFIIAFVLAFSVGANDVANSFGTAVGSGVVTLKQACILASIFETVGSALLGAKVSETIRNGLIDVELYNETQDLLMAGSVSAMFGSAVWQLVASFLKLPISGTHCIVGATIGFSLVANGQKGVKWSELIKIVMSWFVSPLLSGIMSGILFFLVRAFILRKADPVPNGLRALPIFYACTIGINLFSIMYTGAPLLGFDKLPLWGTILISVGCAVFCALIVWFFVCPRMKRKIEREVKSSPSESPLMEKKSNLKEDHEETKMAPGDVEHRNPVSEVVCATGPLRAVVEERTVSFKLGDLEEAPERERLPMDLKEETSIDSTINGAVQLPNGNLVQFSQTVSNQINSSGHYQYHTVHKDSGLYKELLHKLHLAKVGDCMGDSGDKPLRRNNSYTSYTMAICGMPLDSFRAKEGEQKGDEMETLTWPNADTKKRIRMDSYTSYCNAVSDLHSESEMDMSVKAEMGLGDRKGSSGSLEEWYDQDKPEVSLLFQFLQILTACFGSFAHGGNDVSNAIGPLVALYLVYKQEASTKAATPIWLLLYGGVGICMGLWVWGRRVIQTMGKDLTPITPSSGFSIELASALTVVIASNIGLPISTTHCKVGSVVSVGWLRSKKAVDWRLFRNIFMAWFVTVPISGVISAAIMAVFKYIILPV

[4] = biological target: T1, Pit-1 wild type, expressed from plasmid in HEK293T cells (mouse); test: co-IP; HEK293T cells co-transfected with WT SGK3 and Pit-1 plasmids for 48 h; whole-cell lysates precipitated with anti-Pit-1 antibody (Figure 4D) or anti-SGK3 antibody (Figure 4E), protein A+G agarose, overnight at 4 °C; blot with anti-Pit-1 and anti-SGK3
[5] = biological target: T1, Pit-1 wild type, expressed from plasmid in HEK293T cells (mouse); test: co-IP; HEK293T cells co-transfected with SGK3-S486D and Pit-1 wild type or Pit-1 T468A plasmid; precipitating antibody not told for this panel (Figure 4I)

binding [1]: binds
Molecule: neural precursor cells expressing developmentally downregulated protein 4 subtype 2 (Nedd4-2), mouse, expressed in HEK293T cells (from UniProt Q8CFI0 1-1004) (enzyme)

binding [2]: binds
B1: Pit-1 wild type, expressed from plasmid in HEK293T cells (protein, UniProt Q61609 1-681)
chain: MESTVATITSTLAAVTASAPPKYDNLWMLILGFIIAFVLAFSVGANDVANSFGTAVGSGVVTLKQACILASIFETVGSALLGAKVSETIRNGLIDVELYNETQDLLMAGSVSAMFGSAVWQLVASFLKLPISGTHCIVGATIGFSLVANGQKGVKWSELIKIVMSWFVSPLLSGIMSGILFFLVRAFILRKADPVPNGLRALPIFYACTIGINLFSIMYTGAPLLGFDKLPLWGTILISVGCAVFCALIVWFFVCPRMKRKIEREVKSSPSESPLMEKKSNLKEDHEETKMAPGDVEHRNPVSEVVCATGPLRAVVEERTVSFKLGDLEEAPERERLPMDLKEETSIDSTINGAVQLPNGNLVQFSQTVSNQINSSGHYQYHTVHKDSGLYKELLHKLHLAKVGDCMGDSGDKPLRRNNSYTSYTMAICGMPLDSFRAKEGEQKGDEMETLTWPNADTKKRIRMDSYTSYCNAVSDLHSESEMDMSVKAEMGLGDRKGSSGSLEEWYDQDKPEVSLLFQFLQILTACFGSFAHGGNDVSNAIGPLVALYLVYKQEASTKAATPIWLLLYGGVGICMGLWVWGRRVIQTMGKDLTPITPSSGFSIELASALTVVIASNIGLPISTTHCKVGSVVSVGWLRSKKAVDWRLFRNIFMAWFVTVPISGVISAAIMAVFKYIILPV

binding [3]: binds
B2: serum- and glucocorticoid-induced kinase 3 (SGK3), endogenous in mouse VSMCs (enzyme, UniProt Q9ERE3 1-496)
chain: MQRDCIMDYKESCPSVSIPSSDEHREKKKRFTVYKVLVSVGRSEWFVFRRYAEFDKLYNSLKKQFPAMALKIPAKRIFGDNFDPDFIKQRRAGLNEFIQNLVRYPELYNHPDVRAFLQMDSPRHQSDPSEDEDERSTSKPHSTSRNINLGPTGNPHAKPTDFDFLKVIGKGSFGKVLLAKRKLDGKFYAVKVLQKKIVLNRKEQKHIMAERNVLLKNVKHPFLVGLHYSFQTTEKLYFVLDFVNGGELFFHLQRERSFPEPRARFYAAEIASALGYLHSIKIVYRDLKPENILLDSMGHVVLTDFGLCKEGIAISDTTTTFCGTPEYLAPEVIRKQPYDNTVDWWCLGAVLYEMLYGLPPFYCRDVAEMYDNILHKPLNLRPGVSLTAWSILEELLEKNRQNRLGAKEDFLEIQNHPFFESLSWTDLVQKKIPPPFNPNVAGPDDIRNFDAVFTEETVPYSVCVSSDYSIVNASVLEADDAFVGFSYAPPSEDLFL

binding [4]: binds
B3: WT SGK3, expressed from plasmid in HEK293T cells (enzyme, UniProt Q9ERE3 1-496)
chain: MQRDCIMDYKESCPSVSIPSSDEHREKKKRFTVYKVLVSVGRSEWFVFRRYAEFDKLYNSLKKQFPAMALKIPAKRIFGDNFDPDFIKQRRAGLNEFIQNLVRYPELYNHPDVRAFLQMDSPRHQSDPSEDEDERSTSKPHSTSRNINLGPTGNPHAKPTDFDFLKVIGKGSFGKVLLAKRKLDGKFYAVKVLQKKIVLNRKEQKHIMAERNVLLKNVKHPFLVGLHYSFQTTEKLYFVLDFVNGGELFFHLQRERSFPEPRARFYAAEIASALGYLHSIKIVYRDLKPENILLDSMGHVVLTDFGLCKEGIAISDTTTTFCGTPEYLAPEVIRKQPYDNTVDWWCLGAVLYEMLYGLPPFYCRDVAEMYDNILHKPLNLRPGVSLTAWSILEELLEKNRQNRLGAKEDFLEIQNHPFFESLSWTDLVQKKIPPPFNPNVAGPDDIRNFDAVFTEETVPYSVCVSSDYSIVNASVLEADDAFVGFSYAPPSEDLFL

binding [5]: binds
B4: constitutively activated S486D mutant of mouse SGK3 (SGK3-S486D), expressed in HEK293T cells (enzyme, UniProt Q9ERE3 1-496)
chain: MQRDCIMDYKESCPSVSIPSSDEHREKKKRFTVYKVLVSVGRSEWFVFRRYAEFDKLYNSLKKQFPAMALKIPAKRIFGDNFDPDFIKQRRAGLNEFIQNLVRYPELYNHPDVRAFLQMDSPRHQSDPSEDEDERSTSKPHSTSRNINLGPTGNPHAKPTDFDFLKVIGKGSFGKVLLAKRKLDGKFYAVKVLQKKIVLNRKEQKHIMAERNVLLKNVKHPFLVGLHYSFQTTEKLYFVLDFVNGGELFFHLQRERSFPEPRARFYAAEIASALGYLHSIKIVYRDLKPENILLDSMGHVVLTDFGLCKEGIAISDTTTTFCGTPEYLAPEVIRKQPYDNTVDWWCLGAVLYEMLYGLPPFYCRDVAEMYDNILHKPLNLRPGVSLTAWSILEELLEKNRQNRLGAKEDFLEIQNHPFFESLSWTDLVQKKIPPPFNPNVAGPDDIRNFDAVFTEETVPYSVCVSSDYSIVNASVLEADDAFVGFDYAPPSEDLFL
